Test results as given in article PMC10163288.
The list shows a part of the results.

B1: il10ra_site1_sap_19_mot_HHH_b2_02463_af2_000000222_0001_1_19_H_._HHH_b2_00103_af2_0001_0000200019_0000001_0_0001 (protein)
chain: SSSSSSSAERSVELTLKAAKQIEDEEYVRMALRFARWIAEWTNNEELRELVEKLEEELSSSSSSS
B2: il10ra_site1_sap_26_mot_HHH_b2_03039_af2_000000183_0001_1_19_H_._HHH_b2_03047_0001_0000200011_0000002_0_0001_af2pred_0001 (protein)
chain: SSSSSREAAEEAIRLSRRIIELAAEGNPEEAEKLLEEVQRLVEETKDPFVKFILELLERILSSSS
B3: il10ra_site1_sap_23_mot_HHH_b1_08133_000000195_0001_1_19_H_._HHH_b2_03796_0001_0000200017_0000001_1_0001 (protein)
chain: SSSSDEAYRLVEEAIEEALKLWRNGNPEEAQELIEEVIERLRELGNWAAVWAAEHVLRVLRSSSS
B4: il10ra_site1_normal_mot_HHH_b1_02997_000000220_0001_39_52_H_._HHH_b1_03964_0001_0000100002_0000001_1_af2pred_0001 (protein)
chain: SSSSDEEVREAIEILRRAAELHSNGNPEEAEELLERAEELAERAGNLLLLVAIRFLLKLVRSSSS
B5: il10ra_site1_normal_mot_HHH_b2_07521_000000141_0001_20_37_H_._HHH_b1_04812_0001_0000100006_0000001_0 (protein)
chain: SSSSDDEEYIRLSSRFAEFLLKEGDPRAAKILLEVARRLAEEANDPELLRELEELLEEVNSSSSS
B6: il10ra_site1_normal_mot_HHH_b1_02397_af2_000000085_0001_39_57_H_._HHH_b2_00311_0001_0000100005_0000001_1 (protein)
chain: SSSSSSDLEELLEELEQLLEEGDHERFAEVALRILRHAFRNSDPEVLQAVWRLVRELASSSSSSS
B7: il10ra_site1_normal_mot_HHH_b2_07569_000000265_0001_38_56_H_._HHH_b2_07896_0001_0000100003_0000002_0 (protein)
chain: SSSSSDEEYQEEVEELLEEAKHIEDREKALEVLLEALQLALELGDPELVQLVWEVIKRLFSSSSS
B8: il10ra_site1_sap_22_mot_HHH_b2_02022_af2_000000170_0001_1_16_H_._HHH_b1_06437_0001_0000200006_0000001_0_0001_af2pred_0001 (protein)
chain: SSSSSDEEEEEVEELLEEARKIEDEEEVRKILARAHRIASELNNPELIQKVLQVFAELMGSSSSS
B9: il10ra_site1_normal_mot_HHH_b1_06994_000000193_0001_40_55_H_._HHH_b2_00652_0001_0000100005_0000001_0 (protein)
chain: SSSSDQREELAEALERLIEQALENGDERAARFLLYSLELLAEELNDPELRELVEELRERLDSSSS
B10: il10ra_site1_normal_mot_39ab2cb694c8b9c1dc7e65c0d672c93e_0001_000000036_0001_53_65_H_._HHH_b1_00346_0001_0000900028_0000003_0 (protein)
chain: SSSSDKEENEELLERLQELIEEGDREEALRLAQEALRILVRNSDPEALQELWELVKLIAEISSSS
B11: il10ra_site1_sap_20_mot_1e76edf2fd0b5081d1d1bafe495674d8_0001_000000060_0001_52_65_H_._ems_3hM_1509_0001_0000200009_0000001_0_0001_af2pred_0001 (protein)
chain: SSSSSSSDERSVKLILRAAKRIPDPEKAKLAVRVALLSAKEANNPELEREAEEILEELSSSSSSS
B12: il10ra_site1_normal_mot_HHH_b2_00273_000000062_0001_23_39_H_._HHH_b1_01151_0001_0000400028_0000001_0 (protein)
chain: SSSSSDRVEELLEEAEELAERGNPREALRVLQEAIRFAFRLNDQELLREIWEVARLVAELSSSSS
B13: il10ra_site1_normal_mot_HHH_b2_00475_000000107_0001_44_57_H_._ems_3hM_3122_0001_0000300009_0000001_0 (protein)
chain: SSSEEEVEEIVKEAEKLAKEKNDEELERYVEIARHFVEAALKLGDKELAERVARFLLESVEDASS
B14: il10ra_site1_sap_17_mot_HHH_b2_06600_af2_000000211_0001_1_16_H_._HHH_b2_07336_0001_0000100005_0000001_0_0001 (protein)
chain: SEEEEILERLAKGDPEAERLLRELIERLEEEGDEEAVLRLLFEAVRIVQQASNPEALQVVWELLP
B15: il10ra_site1_normal_mot_HHH_b1_00137_000000000_0001_1_19_H_._HHH_b2_06740_0001_0000700018_0000001_0_af2pred_0001 (protein)
chain: SSSDLQELQRFAAEVVVELVEELGLDREQLKILLELALRLVREGFSEEEIERILREVAEELSSSS
B16: il10ra_site1_normal_mot_HHH_b2_00033_000000036_0001_41_54_H_._HHH_b1_00748_0001_0000400025_0000001_0 (protein)
chain: SSSSDAAELAAAASRLAIRLNNPELFQRLWELAKRIAEEGDPELREELEEIVEELERLISSSSSS
B17: il10ra_site1_normal_mot_HHH_b1_04704_af2_000000076_0001_43_57_H_._HHH_b2_03013_0001_0000100007_0000001_0_af2pred_0001 (protein)
chain: SSSSSSKREVIEEAIKILRKARKVEDPEEVRELLEEAERLAEEANNILLKIQVEFAKRRLSSSSS
B18: il10ra_site1_normal_mot_HHH_b1_02062_000000185_0001_1_20_H_._HHH_b1_04705_0001_0000300019_0000002_0 (protein)
chain: SSSSDLLERVYELSREAAELHSDGNPEEAERVLEEARELAEELGNELLRVQLEFLERLLENSSSS
B19: il10ra_site1_sap_14_mot_HHH_b2_01732_000000184_0001_19_35_H_._0bd37feb6572f9efcaa6698804f79080_0001_af2_0001_0000100004_0000002_0_0001 (protein)
chain: SSSSSREEVWELIRKALEALANGDPERAEELLEEARQLAEELNSPLFRFAVEHLLRAVEESSSSS
B20: il10ra_site1_sap_22_mot_HHH_b1_02641_af2_000000230_0001_39_52_H_._HHH_b1_07066_0001_0000600036_0000002_0_0001 (protein)
chain: SSSSDVHEEVRRAIEEAIRLFREGNPEEAEKVLEEAAERLEERNNQLAVRSIRYLLEILKSSSSS
B21: il10ra_site1_normal_mot_HHH_b2_08265_af2_000000206_0001_22_38_H_._HHH_b2_01362_0001_0000200008_0000001_0_1_af2pred_dldesign_0_af2pred (protein)
chain: SSSSSPKQKEIERLKAELEALLKAKDYKKIVETLKRLVEVAAEEDDQEALQFAYEVNKKLSSSSS
B22: il10ra_site1_normal_mot_HHH_b1_02997_000000220_0001_39_52_H_._HHH_b2_07229_0001_0000100008_0000001_0_af2pred_0001 (protein)
chain: SSSSSEEAREAIELLREAVELLAEGNPEEARELVEEALELAREAGDPELEIIAEFLLRNLSSSSS
B23: il10ra_site1_sap_21_mot_HHH_b1_05329_000000008_0001_43_56_H_._HHH_b2_08235_0001_0000300018_0000002_0_0001_af2pred_0001 (protein)
chain: SSSSSRAEEHAEFLIRAAEELLELGNPEAARLALRDALRTARDGNNEELAEEIEKLIEEVESSSS
B24: il10ra_site1_normal_mot_ems_3hC_416_0001_000000048_0001_1_19_H_._HHH_b1_01643_af2_0001_0000100001_0000001_1 (protein)
chain: SSSSSEENQEALELSREAFRLLLRGNEEEAKELLEEALELAKKGGNPRLARIIEELLKALNSSSS

target: il10ra, Q13651; test: yeast display titration

Apparent Kd, inactive:
B1 no binding seen
B2 no binding seen
B3 no binding seen
B4 no binding seen
B5 > 1580 nM
B6 no binding seen
B7 no binding seen
B8 no binding seen
B9 no binding seen
B10 no binding seen
B11 no binding seen
B12 no binding seen
B13 no binding seen
B14 no binding seen
B15 no binding seen
B16 no binding seen
B17 no binding seen
B18 no binding seen
B19 no binding seen
B20 no binding seen
B21 no binding seen
B22 no binding seen
B23 no binding seen
B24 no binding seen

Looked up one by one from above (two):
Apparent Kd, inactive:
B12 no binding seen
B14 no binding seen
